Source: article PMC7862700
The entries are a selection whose mix differs from that of the whole data set. For some assays here: At the low end of the ranking the order means little. The list shows a part of the results. For some assays here: Construct or isoform of the protein are uncertain.

Chains of the proteins cited; added tags and fusions are not shown. Lines headed by an entry give the natural chain unless they say otherwise; changes in a name come on top.
UniProt P32519: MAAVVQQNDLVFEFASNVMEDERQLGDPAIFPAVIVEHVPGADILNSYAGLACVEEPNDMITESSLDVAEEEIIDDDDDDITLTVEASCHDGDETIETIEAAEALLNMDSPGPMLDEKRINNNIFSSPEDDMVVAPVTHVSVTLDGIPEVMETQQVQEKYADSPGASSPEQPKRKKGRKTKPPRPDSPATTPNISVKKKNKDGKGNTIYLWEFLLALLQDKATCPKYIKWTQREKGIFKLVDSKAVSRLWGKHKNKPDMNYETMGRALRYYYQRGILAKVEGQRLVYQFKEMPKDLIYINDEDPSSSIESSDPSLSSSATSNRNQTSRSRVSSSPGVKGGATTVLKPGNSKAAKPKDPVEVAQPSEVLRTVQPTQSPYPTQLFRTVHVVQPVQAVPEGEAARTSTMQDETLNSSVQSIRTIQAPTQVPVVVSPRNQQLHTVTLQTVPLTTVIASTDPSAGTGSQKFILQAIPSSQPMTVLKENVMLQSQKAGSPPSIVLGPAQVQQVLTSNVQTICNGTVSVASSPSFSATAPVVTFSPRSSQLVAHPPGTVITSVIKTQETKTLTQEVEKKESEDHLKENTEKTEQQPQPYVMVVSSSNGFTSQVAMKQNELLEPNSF
UniProt P50549: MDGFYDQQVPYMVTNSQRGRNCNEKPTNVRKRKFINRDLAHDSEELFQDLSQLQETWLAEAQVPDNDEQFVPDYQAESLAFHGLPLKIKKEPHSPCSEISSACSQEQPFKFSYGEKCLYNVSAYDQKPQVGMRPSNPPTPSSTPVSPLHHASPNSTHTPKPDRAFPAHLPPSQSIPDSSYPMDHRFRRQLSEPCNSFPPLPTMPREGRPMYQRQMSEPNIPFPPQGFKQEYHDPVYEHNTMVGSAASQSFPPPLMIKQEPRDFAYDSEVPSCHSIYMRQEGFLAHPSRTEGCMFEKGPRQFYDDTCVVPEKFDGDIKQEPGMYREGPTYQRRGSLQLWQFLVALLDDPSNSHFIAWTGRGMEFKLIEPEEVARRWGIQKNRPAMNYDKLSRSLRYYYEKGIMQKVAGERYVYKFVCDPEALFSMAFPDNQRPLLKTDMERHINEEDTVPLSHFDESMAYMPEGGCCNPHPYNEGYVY

Experiments:
Test in all cases: DAPPL (digital affinity profiling via proximity ligation, sequencing)
Conditions in all cases: 10 mM Tris-HCl pH 7.5, 50 mM NaCl, 1 mM DTT, 4% glycerol, room temperature, 30 min; GST-TFs on glutathione beads, 16-mer random dsDNA library, 0.1% …; high values mean tight binding; double strand, one strand shown; scale: fold enrichment (6-mer frequency, TF over GST control)
ELF1 = ELF1 (UniProt P32519)
ELK4 = target: T1, ELK4 (UniProt P28324-2)
T1 sequence: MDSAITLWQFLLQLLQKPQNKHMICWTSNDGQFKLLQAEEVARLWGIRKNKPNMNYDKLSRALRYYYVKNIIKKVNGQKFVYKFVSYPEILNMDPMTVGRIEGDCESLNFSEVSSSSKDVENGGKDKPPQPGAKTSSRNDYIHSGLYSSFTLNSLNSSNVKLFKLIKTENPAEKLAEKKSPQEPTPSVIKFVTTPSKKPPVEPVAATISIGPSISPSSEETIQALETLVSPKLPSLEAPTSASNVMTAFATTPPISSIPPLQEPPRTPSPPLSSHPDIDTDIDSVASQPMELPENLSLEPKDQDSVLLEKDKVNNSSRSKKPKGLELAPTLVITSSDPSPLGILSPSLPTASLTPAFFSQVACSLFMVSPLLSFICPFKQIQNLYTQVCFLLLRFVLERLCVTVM

ETV4 = target: T2, ETV4 (UniProt P43268)
T2 sequence: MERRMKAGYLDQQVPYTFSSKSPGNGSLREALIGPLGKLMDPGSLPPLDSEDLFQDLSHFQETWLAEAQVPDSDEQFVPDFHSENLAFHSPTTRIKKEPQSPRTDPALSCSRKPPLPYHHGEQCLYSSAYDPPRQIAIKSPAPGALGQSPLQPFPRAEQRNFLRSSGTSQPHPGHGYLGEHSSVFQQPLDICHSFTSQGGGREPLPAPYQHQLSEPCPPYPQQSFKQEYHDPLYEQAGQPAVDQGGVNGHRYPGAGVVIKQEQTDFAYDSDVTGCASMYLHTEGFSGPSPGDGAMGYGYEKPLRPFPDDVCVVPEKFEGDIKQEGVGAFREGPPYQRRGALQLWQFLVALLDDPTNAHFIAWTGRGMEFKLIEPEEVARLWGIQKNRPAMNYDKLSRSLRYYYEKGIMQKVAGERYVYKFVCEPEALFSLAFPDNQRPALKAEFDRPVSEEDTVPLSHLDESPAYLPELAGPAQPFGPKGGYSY

ETV1 = ETV1 (UniProt P50549)
ERF = target: T3, ERF (UniProt P50548)
T3 sequence: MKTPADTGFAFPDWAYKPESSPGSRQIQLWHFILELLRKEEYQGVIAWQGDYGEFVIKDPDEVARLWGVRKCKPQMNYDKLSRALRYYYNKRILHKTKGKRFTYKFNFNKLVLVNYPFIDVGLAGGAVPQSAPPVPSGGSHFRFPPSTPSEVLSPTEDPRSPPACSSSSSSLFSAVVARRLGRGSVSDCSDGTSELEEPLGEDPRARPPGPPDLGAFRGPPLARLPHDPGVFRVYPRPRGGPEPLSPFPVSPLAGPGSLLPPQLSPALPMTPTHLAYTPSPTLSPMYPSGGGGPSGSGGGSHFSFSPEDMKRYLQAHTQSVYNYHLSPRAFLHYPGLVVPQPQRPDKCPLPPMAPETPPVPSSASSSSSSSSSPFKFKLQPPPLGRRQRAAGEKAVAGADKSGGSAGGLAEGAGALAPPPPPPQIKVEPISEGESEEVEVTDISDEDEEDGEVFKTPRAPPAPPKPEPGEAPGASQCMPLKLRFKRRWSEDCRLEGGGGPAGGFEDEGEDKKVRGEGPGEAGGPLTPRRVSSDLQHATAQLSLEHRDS

Sequence | binding signal (ELF1) | binding signal (ELK4) | binding signal (ETV4) | binding signal (ETV1) | binding signal (ERF)
CTAACC | 1.12 | 1 | 1.2 | 1.16 | –
TGCAAT | – | 1.28 | 1.24 | – | 1.14
AATGGA | – | 0.824 | 1.07 | – | 0.934
GGGAAA | 0.949 | 0.89 | 0.948 | 0.958 | –
TTCCAC | 1.45 | 1.39 | 1.48 | 1.38 | –
CGGATT | 0.918 | 0.879 | 0.934 | 0.905 | 0.929
TTAGAT | 1.03 | 1.23 | 1.08 | 0.986 | –
ACAAAC | 1.12 | 1.08 | 1.11 | 1.12 | –
ATATCT | – | 1.2 | 1.24 | – | 1.23
AGTGAC | 0.973 | 0.998 | 1.06 | 1.03 | 0.997
AGGACC | 1.06 | 0.931 | 1.08 | 0.966 | 0.949
AACACT | – | 1.29 | 1.26 | – | 1.21
CCCATC | 1.12 | 1.3 | 1.28 | 1.18 | –
TTCAGA | 0.922 | 0.881 | 0.975 | 0.949 | 0.97
ATTCCT | 1.42 | 1.22 | 1.32 | 1.28 | 1.2
ATAGAT | 1.23 | 1.13 | 1.15 | 1.19 | –
TGTTTC | – | 1.55 | 1.88 | – | 1.86
CTATAG | – | 1.14 | 1.04 | – | 1.03
TGTATA | – | 1.22 | 1.1 | – | 1.24
CCGGTG | 0.918 | 0.816 | 1.07 | 0.977 | 0.971
TAACTA | 1.32 | 1.26 | 1.31 | 1.24 | 1.38
GCGATA | 0.999 | 1.07 | 1.08 | 0.969 | 0.917
TATGTG | – | 1.17 | 1.09 | – | 1.07
ATGACC | – | 1.54 | 1.62 | – | 1.42

Quoted from the listing:
Entry for AGGACC under binding signal (ELF1): 1.06
Entry for CGGATT under binding signal (ELF1): 0.918
Entry for ATAGAT under binding signal (ETV1): 1.19
Entry for ACAAAC under binding signal (ETV4): 1.11

The list goes on.

Sequence | binding signal (ELF1) | binding signal (ELK4) | binding signal (ETV4) | binding signal (ETV1) | binding signal (ERF)
AGTAAC | 0.997 | 0.907 | 1.03 | 0.948 | –
ACGTAC | 1.16 | 1.24 | 1.2 | 1.18 | 1.16
CCAACT | 1.25 | 1.27 | 1.17 | 1.21 | –
ACGAGC | 0.974 | 0.931 | 0.965 | 0.982 | 0.953
ATGGCG | 1.06 | 0.956 | 1.13 | 0.96 | 0.965
GCCATT | 0.949 | 1.07 | 0.975 | 0.994 | –
CTCCAA | 1.3 | 1.23 | 1.26 | 1.33 | –
GTGGAT | 0.919 | 0.898 | 0.878 | 0.895 | 0.858
ACCCAT | 1.25 | 1.17 | 1.31 | 1.19 | –
CCCCAA | – | 1.16 | 1.1 | – | 1.06
CAAGTA | – | 0.989 | 1.12 | – | 1.14
AGCGCT | 1.05 | 0.851 | 1.16 | 1.02 | –
TCGGCT | 0.917 | 0.945 | 0.947 | 0.978 | 0.951
GCCCTC | 1.17 | 1.1 | 1.2 | 1.18 | –
TTTGCC | – | 1.37 | 1.41 | – | 1.31
AAATCG | 0.975 | 0.974 | 1.06 | – | 0.96
TCATCA | – | 1.26 | 1.19 | – | 1.23
CTCTCG | – | 1.41 | 1.45 | – | 1.36
CGCCCC | – | 1.06 | 1.24 | – | 1.28
CTAGGC | – | 0.981 | 1.14 | – | 0.98
AGGAAC | 0.977 | 0.907 | 0.988 | – | 0.959
CGTATC | 1.23 | 1.16 | 1.17 | – | 1.15
ATCCTT | – | 1.77 | 1.61 | – | 1.56
AGTATG | 1.04 | 0.99 | 0.999 | – | 1.02

Sequence | binding signal (ELF1) | binding signal (ELK4) | binding signal (ETV4) | binding signal (ETV1) | binding signal (ERF)
ATCTAT | – | 1.18 | 1.04 | – | 1.12
CACGCG | – | 1.24 | 1.27 | – | 0.995
ATGCGA | – | 1.33 | 1.25 | – | 1.16
TTATTA | 1.1 | 1.03 | 1.12 | – | 0.948
GTCTCT | – | 1.18 | 1.31 | – | 1.16
ACGACC | – | 1.14 | 1.23 | – | 1.11
GAACTG | – | 0.956 | 1.04 | – | 0.953
CGGATG | – | 1.31 | 1.92 | – | 1.39
TCTGCG | – | 1.14 | 1.19 | – | 1.07
GTTGCT | – | 1.33 | 1.26 | – | 1.27
TGCGCC | – | 0.974 | 1.12 | – | 1.12
GGCCTC | – | 1.17 | 1.16 | – | 1.12
ATTTTG | – | 1.31 | 1.21 | – | 1.24
TACATA | – | 1.22 | 1.21 | – | 1.33
ATTAGT | – | 1.2 | 1.05 | – | 0.956
TATATG | – | 1.65 | 1.44 | – | 1.48
GAAACC | – | 0.863 | 0.988 | – | 0.994
ATAATA | – | 1.14 | 1.17 | – | 1.32
GTTACC | – | 0.984 | 1.08 | – | 0.971
CAAACT | 1.17 | 1.15 | 1.14 | – | 1.23
TCAGAT | – | 0.948 | 1.06 | – | 0.933
TTACAT | – | 1.34 | 1.43 | – | 1.41
AGATGA | 1.14 | 0.994 | 1.21 | – | 1.18
